The data set deals with rice leaves. In words: Fast Chl. a (O-J-I-P) fluorescence transient in leaves of artemisinin sprayed plants. The data set is classed as in vivo, Rice (Oryza sativa var. Safari). The note with it: leaves of sprayed rice plants (~1.86 µmol/plant); dark adapted. As to the method: Twenty one day old rice plants were sprayed with artemisinin twice at a 24 h interval. One mililiter of 74.4 mM artemisinin in 1% (V/V) DMSO, 0.1% (V/V) TWEEN-20 was diluted 100 fold with water and used to treat 40 plants (∼1.86 µmol of artemisinin/plant). Control plants were sprayed with the same solution without artemisinin. The 4th (quaternary) leaf was harvested 20 h after the 2nd spray and used for all experiments. The individual effect of the surfactant and DMSO-plus-surfactant was first evaluated against water control. Since no effect was obtained with these variations, we have routinely used the DMSO plus the surfactant sprayed leaves as control against artemisinin treated leaves and in figures the same has been depicted as DMSO (control). The room temperature Chl. a fluorescence technique was used to study the photosynthetic activity in intact leaf samples. The fast Chl. a transients (O-J-I-P) in millisecond (ms) time span was studied with plant efficiency analyzer (Handy PEA fluorimeter) following Strasser et al., while the relative thylakoid electron transport, membrane energization and carbon fixation activities were evaluated from slow fluorescence transients, obtained using FMS2 instrument (Hansatech) as per the detail outlined in Baker. The readouts from Handy PEA were analyzed using biolyzerhp3 software.

As for `C[C@@H]1CC[C@H]2[C@@H](C)C(=O)O[C@@H]3O[C@@]4(C)CC[C@@H]1[C@]32OO4` [Artemisinin], the “FO (Chl. a fluorescence)” value is 368±11 and the “Fm (Chl. a fluorescence)” value is reported as 1757±19.

The values are drawn from paper PMC3374801, “Artemisinin Inhibits Chloroplast Electron Transport Activity: Mode of Action” (PLoS ONE, 2012).
